# Measurements reported in PubChem BioAssay AID1259424 (University of Nebraska Medical Center, 2018)
# Screen: 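Rank knockdowns across the genome by resemblance to the KSR1 depletion profile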 (primary screen)
# System: human HCT116 colon cancer cells
# Reagents: siRNA pool against human genes, 50 nM
# Read-out: 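Six signature mRNAs by branched-DNA multiplex assay, scaled to two housekeeping genes and non-targeting median, log2; matched to mean KSR1 knockdown profile by Pearson correlation and euclidean distance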
# Scale: mean correlation with KSR1 profile and KSR1 correlation: higher = expression change more like KSR1 knockdown; mean distance from KSR1 profile: higher = expression change less like KSR1 knockdown
# The whole screen tested about 14,000 reagents; this is a part drawn at random. 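Higher correlation or smaller distance means closer resemblance to KSR1 loss; control wells, including KSR1 knockdowns, recur on many plates.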 Further read-outs or replicates are left out here. Not given: the time to read-out.
gene symbol,mean correlation with KSR1 profile,mean distance from KSR1 profile,"KSR1 correlation, replicate 1"
IP6K2 (inositol hexakisphosphate kinase 2),-0.0444,2.94,-0.226
SRSF7 (serine and arginine rich splicing factor 7),0.189,3.24,0.0153
VEPH1 (ventricular zone expressed PH domain containing 1),-0.312,2.33,-0.164
HAS1 (hyaluronan synthase 1),0.122,3.38,0.313
SH3BP5 (SH3 domain binding protein 5),0.0764,1.2,-0.183
XRCC1 (X-ray repair cross complementing 1),0.368,1.41,0.402
PLA2G5 (phospholipase A2 group V),0.684,1.38,0.564
SLC10A7,0.76,1.63,0.638
RIN2 (Ras and Rab interactor 2),-0.431,2.81,-0.473
TMPO (thymopoietin),-0.331,2.15,0.00123
ZC2HC1C (zinc finger C2HC-type containing 1C),0.108,2.05,0.256
YIPF1 (Yip1 domain family member 1),0.477,1.35,0.407
DEPTOR (DEP domain containing MTOR interacting protein),-0.305,1.42,-0.674

An excerpt from above, limited to “KSR1 correlation, replicate 1”.
XRCC1 (X-ray repair cross complementing 1): 0.402
PLA2G5 (phospholipase A2 group V): 0.564
SLC10A7: 0.638

The listing continues.
gene symbol,mean correlation with KSR1 profile,mean distance from KSR1 profile,"KSR1 correlation, replicate 1"
DISP2 (dispatched RND transporter family member 2),0.473,1.92,0.51
CDC42BPG (CDC42 binding protein kinase gamma),0.657,2.34,0.838
PCDHB12 (protocadherin beta 12),0.864,0.994,0.754
RETSAT (retinol saturase),-0.537,2.76,-0.208
CCRL2 (C-C motif chemokine receptor like 2),0.488,1.64,0.382
IL6ST (interleukin 6 cytokine family signal transducer),0.555,0.789,0.637
CUL4B (cullin 4B),-0.444,1.95,-0.416
